# Data from publication PMC12431657, “Discovery and mechanistic insights of dibenzoylmethane as a broad spectrum inhibitor of coronavirus” (PLOS Pathogens, 2025).
# Most of the strong results are listed elsewhere, so they are rarer here than in the full data.
# Key:
# HCoV-229E = tested on: HCoV-229E; design: species or system Huh-7; HTS, protection from HCoV-229E induced cell death, luminescent cell viability (CellCounting-Lite 2.0), inhibition rate; conditions: 24 h post infection, 1 h compound pre-incubation; 10 µM; inhibitor
# HCoV-OC43 = tested on: HCoV-OC43; design: species or system RD; HTS, protection from HCoV-OC43 induced cell death, luminescent cell viability (CellCounting-Lite 2.0), inhibition rate; conditions: 24 h post infection, 1 h compound pre-incubation; 10 µM; inhibitor
structure (smiles),measurement,setting,value
"Cc1ccc2nc(C)ccc2c1 [2,6-Dimethylquinoline]",229E Inhibition rate,HCoV-229E,36%
same,OC43 Inhibition rate,HCoV-OC43,0%
